Our source for the binding values is publication PMC7901196.

Chains of the proteins cited; added tags and fusions are not shown.
UniProt A0A8C0NGY6: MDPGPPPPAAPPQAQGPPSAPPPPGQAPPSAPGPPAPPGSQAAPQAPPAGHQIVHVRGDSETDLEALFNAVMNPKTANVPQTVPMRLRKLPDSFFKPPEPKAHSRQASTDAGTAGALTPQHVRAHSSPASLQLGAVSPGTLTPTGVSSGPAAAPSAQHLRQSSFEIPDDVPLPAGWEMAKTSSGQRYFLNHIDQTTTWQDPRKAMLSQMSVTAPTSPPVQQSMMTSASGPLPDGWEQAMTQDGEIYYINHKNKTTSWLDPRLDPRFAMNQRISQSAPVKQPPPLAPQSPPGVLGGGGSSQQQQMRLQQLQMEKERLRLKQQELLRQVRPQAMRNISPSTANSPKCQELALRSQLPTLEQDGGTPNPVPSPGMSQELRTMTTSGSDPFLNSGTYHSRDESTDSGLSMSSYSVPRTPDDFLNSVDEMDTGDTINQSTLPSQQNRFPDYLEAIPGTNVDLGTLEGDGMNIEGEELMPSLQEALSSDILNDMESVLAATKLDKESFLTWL
UniProt O97758: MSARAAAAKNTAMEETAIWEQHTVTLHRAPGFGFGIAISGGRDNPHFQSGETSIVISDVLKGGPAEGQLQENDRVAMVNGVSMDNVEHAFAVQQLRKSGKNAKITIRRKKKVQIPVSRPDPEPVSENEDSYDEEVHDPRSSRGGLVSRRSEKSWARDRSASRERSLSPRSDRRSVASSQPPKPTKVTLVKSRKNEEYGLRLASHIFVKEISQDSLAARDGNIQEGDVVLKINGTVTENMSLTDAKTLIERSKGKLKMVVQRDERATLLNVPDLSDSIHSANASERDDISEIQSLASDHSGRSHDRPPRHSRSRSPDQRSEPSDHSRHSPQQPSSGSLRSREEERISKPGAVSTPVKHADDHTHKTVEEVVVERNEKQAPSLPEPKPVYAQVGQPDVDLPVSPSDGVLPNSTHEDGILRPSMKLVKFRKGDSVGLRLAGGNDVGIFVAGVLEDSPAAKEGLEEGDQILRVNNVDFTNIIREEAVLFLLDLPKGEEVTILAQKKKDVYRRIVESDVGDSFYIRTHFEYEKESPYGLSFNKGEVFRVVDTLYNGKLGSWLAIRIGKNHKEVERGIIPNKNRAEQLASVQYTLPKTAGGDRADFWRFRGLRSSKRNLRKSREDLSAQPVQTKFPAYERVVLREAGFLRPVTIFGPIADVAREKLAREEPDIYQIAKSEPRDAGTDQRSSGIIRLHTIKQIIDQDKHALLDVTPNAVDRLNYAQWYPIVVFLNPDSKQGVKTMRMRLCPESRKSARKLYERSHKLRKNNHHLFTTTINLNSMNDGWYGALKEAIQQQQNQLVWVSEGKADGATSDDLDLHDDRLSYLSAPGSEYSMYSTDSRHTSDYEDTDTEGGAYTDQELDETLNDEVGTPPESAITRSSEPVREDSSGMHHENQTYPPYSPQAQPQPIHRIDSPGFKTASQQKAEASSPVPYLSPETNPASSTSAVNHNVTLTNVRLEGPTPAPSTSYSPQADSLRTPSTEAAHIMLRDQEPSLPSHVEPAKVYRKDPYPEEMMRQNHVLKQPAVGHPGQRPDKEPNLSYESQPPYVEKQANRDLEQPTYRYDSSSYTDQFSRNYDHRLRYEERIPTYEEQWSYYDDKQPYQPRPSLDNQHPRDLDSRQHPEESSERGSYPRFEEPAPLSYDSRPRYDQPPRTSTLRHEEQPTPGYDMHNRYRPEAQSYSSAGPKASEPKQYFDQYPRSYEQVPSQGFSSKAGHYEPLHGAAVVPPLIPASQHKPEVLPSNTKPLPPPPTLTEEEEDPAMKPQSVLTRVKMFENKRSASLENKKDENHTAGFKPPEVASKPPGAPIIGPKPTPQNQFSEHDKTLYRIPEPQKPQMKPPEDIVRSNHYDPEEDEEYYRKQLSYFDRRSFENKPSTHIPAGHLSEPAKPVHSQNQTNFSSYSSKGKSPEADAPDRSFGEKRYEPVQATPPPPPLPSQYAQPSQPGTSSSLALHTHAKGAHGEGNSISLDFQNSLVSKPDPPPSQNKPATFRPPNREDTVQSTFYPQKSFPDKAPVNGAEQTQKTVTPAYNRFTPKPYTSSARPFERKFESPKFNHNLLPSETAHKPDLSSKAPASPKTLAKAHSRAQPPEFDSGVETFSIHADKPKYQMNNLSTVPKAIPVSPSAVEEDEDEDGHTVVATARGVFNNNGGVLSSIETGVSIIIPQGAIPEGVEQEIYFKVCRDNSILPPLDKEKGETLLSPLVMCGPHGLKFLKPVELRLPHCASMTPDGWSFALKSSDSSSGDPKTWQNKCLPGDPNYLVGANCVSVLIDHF

The assay deals with T1, claudin-2 (dog (endogenous in MDCK-II)) (UniProt Q95KM6).
T1 sequence: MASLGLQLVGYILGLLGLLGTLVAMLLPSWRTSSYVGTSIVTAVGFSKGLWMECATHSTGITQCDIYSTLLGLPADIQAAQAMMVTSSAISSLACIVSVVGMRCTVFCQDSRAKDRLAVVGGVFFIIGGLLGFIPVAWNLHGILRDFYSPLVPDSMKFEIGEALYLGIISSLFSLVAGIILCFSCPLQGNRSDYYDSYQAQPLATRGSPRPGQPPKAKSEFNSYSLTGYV
In words: affinity purification with mass spectrometry; immunoprecipitation with anti-claudin-2 antibody from MDCK-II cell lysate, mass spectrometry; MDCKII-TALEN (claudin-2 knockout) lysate as negative control.

No constants are given. Whether binding was seen depends on the method and setting. Binding seen in cells or lysates may run through a third protein. A yes stands for co-enrichment or nearness to the bait. Other partners may have been found.

On to “Ubiquitin carboxyl-terminal hydrolase (dog (endogenous in MDCK-II))”, for which the binding result was “binds”.
The result for “YES-associated protein (YAP) (from UniProt A0A8C0NGY6 1-506)” reads “binds”.
Turning to ZO-1 (from UniProt O97758 1-1769), the binding entry is reported as “binds”.

B1: ZO-3 (protein, UniProt O62683 1-898)
chain: MEELTIWEQHTATLCRDPRRGFGIAISGGRDRASGSVVVSDVVPGGPADGRLQTGDHVVMVNGVSMESVTSTFAIQILKTCTKLANITVKRPRKIQLPATKAGTSGRGRQGLEEEADCGQGYDGDTSSGSGRSWDKRSRRARTGRRNQAGSRGRRSPGGNSEANGLALVSGFKRLPRQDVHMRPVKSVLVRRTESEEFGVTLGSQIFIKHITDSGLAARNRGLQEGDLILQINGVSSENLSLSDTRRLIEKSEGKLTLLVLRDRGQFLVNIPPAVSDSDSDSSFLDDISALGSELSQAVPSHVPPPPPHAQRSLDSDGTDSPRDSPPLRRENSLDSRTISEPDAPRHSSYDIYRVPSSQSAEDRGYSPDSRVVRFHKGTTIGLRLAGGNDVGIFVSGVQEGSPADGQGIQEGDQILQVNDVPFRNLTREEAVQFLVALPPGEEVELVTQRNEDIFRKMVQSRVGDSFYIRTHFELEASPPSGLGFTRGDVFHVLDTLCPGPGPSGARGTHWLAVRMGRDLREQERGIIPNQSRAEQLASLESAQRAVGAGPGASVGSSARAEFWRLRGLRRGAKKSTQRSREDLSALTRQGHYPPYERVVLREASFKRPVVILGPVADIAMQKLTAEMPDQFGIADSVLRTDSPSKIIKLDTVRVIAEKNKHALLDVTPSAVERLNYVQYYPIVVFCAPESRAALKALRQWLAPASRRSARRLYAQAQKLRKHSEHLFTATIPLRGTSDTWYQELKAVVREQQTRPIWTAEDQLDNSSEDNLELPHRGLADSSADLSCDSRVNSDYETDGEGYTDGEGYTDVDEGPPAPALARSSEPVLEEEPRSPRDHGRASGARGAQVDRHPYHSQGRQDSMRTYGQEALKKKFTRARDVESSDEDGYDWGPATDL
Regarding B1, the binding result is given as “binds”.

B2: caveolin-1 (protein, UniProt P33724 1-178)
chain: MSGGKYVDSEGHLYTVPIREQGNIYKPNNKAMAEEMSEKQVYDAHTKEIDLVNRDPKHLNDDVVKIDFEDVIAEPEGTHSFDGIWKASFTTFTVTKYWFYRLLSALFGIPMALIWGIYFAILSFLHIWAVVPCIKSFLIEIQCISRVYSIYVHTFCDPFFEAVGKIFSNIRINMQKET
On to B2, for which the binding entry was “binds”.
